Reference: PMC5601897, “The catalytic subunit of DNA polymerase δ inhibits γTuRC activity and regulates Golgi-derived microtubules” (Nature Communications, 2017)
These are yes or no findings as the source states them, for the method shown. In cells and extracts the contact can be indirect. For some assays here: Binding can be weak; no strength is given.

The chains behind the UniProt entries cited, without tags or fusion partners. Where a name states a change or a piece, a line headed by the entry shows the natural chain unless it says otherwise. A line that says so, or that is headed by a name, gives the form on record, which may keep a tag or linker. Residues count along the entry.
UniProt P28340: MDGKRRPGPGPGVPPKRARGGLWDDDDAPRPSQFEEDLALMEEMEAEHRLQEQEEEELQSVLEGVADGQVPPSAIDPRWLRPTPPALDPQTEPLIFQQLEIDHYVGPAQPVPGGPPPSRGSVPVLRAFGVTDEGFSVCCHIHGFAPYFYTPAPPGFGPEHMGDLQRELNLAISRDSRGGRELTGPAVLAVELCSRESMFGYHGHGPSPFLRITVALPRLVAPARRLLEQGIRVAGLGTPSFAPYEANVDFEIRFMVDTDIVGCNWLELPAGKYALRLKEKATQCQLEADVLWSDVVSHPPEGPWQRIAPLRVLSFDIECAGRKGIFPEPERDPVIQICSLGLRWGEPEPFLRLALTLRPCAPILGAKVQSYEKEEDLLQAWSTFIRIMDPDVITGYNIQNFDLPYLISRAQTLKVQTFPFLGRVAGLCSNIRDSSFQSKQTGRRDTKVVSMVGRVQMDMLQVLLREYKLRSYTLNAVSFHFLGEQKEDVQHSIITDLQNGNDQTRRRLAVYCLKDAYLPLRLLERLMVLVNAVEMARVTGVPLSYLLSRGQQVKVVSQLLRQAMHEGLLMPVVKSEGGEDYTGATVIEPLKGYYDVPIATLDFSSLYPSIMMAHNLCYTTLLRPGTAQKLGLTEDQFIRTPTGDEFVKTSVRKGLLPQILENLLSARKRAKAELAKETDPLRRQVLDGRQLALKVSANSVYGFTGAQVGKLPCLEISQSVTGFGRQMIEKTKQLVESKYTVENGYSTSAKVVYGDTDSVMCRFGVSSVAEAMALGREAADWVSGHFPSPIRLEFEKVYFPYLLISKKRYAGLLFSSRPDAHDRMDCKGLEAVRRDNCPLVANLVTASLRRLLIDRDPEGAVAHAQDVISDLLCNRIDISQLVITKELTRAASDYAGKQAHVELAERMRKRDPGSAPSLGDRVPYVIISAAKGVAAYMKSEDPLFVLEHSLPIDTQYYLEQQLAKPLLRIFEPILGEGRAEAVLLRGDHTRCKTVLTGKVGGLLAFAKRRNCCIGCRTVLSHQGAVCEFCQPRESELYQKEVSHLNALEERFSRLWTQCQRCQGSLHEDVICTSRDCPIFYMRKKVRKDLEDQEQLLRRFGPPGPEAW
FLAG-tagged PolD1 fragment 1–316: residues 1-316 of P28340
FLAG-tagged PolD1 fragment 247–955: residues 247-955 of P28340
FLAG-PolD1 S605del, ectopically expressed (P28340, form named): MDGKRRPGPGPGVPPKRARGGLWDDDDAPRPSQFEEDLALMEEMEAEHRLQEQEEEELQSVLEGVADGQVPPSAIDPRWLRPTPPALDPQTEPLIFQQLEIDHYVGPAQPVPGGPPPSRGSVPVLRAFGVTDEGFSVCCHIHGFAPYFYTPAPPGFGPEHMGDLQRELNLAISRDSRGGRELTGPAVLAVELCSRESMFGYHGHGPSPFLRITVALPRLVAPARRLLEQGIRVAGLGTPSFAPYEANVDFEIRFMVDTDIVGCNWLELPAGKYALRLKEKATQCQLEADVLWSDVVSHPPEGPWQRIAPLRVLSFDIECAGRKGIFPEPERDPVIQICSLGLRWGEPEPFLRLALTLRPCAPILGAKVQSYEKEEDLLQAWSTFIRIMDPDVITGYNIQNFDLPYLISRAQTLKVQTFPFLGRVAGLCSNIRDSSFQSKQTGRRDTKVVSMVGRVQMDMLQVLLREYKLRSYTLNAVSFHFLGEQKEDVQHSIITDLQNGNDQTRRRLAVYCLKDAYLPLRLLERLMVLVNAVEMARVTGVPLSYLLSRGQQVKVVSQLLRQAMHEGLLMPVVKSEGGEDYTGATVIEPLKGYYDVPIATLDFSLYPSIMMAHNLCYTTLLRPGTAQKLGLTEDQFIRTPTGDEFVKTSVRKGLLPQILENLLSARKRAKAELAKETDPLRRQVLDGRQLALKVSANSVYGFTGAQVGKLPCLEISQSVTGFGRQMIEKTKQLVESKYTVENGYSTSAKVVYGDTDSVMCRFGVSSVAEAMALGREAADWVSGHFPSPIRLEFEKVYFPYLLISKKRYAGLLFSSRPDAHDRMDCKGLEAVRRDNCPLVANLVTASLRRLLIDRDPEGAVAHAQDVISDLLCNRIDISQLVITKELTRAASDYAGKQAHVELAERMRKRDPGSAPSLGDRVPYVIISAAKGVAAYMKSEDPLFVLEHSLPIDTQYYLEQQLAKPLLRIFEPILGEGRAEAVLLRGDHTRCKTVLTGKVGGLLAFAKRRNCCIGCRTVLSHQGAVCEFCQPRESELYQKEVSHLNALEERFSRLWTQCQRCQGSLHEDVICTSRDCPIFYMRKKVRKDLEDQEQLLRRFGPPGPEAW
UniProt P23258: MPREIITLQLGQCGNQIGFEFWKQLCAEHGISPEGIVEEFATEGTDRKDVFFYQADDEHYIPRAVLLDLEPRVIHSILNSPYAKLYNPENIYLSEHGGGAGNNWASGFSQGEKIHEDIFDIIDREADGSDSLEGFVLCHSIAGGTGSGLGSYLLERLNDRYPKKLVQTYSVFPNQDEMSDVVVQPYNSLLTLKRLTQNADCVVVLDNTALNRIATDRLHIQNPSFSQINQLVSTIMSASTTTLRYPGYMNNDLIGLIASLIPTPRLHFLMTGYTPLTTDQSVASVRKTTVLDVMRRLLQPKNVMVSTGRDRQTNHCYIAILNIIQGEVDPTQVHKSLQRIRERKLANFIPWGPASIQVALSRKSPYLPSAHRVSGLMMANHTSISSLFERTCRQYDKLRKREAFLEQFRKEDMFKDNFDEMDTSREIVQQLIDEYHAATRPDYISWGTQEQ

What was measured:
Experiment in all cases: co-IP; FLAG-tagged PolD1, its mutants or fragments expressed in HEK293T cells; anti-FLAG M2 beads in extracts (0.5% IGEPAL CA-630), 4 °C, 2 h; cells with control or GCP4-specific siRNA in Fig. 1c; immunoblot of endogenous partners
[1] = molecular target: FLAG-PolD1 (wild type), ectopically expressed (human) (UniProt P28340)
[2] = molecular target: FLAG-PolD1 D515V, ectopically expressed (human) (UniProt P28340)
[3] = molecular target: FLAG-PolD1 S605del, ectopically expressed (human) (UniProt P28340)
[4] = molecular target: FLAG-tagged PolD1 fragment 1–316 (human) (UniProt P28340)
[5] = molecular target: FLAG-tagged PolD1 fragment 247–955 (human) (UniProt P28340)

binding [1]: binds | binding [2]: binds | binding [3]: binds | binding [4]: no binding | binding [5]: binds
Substance: γ-tubulin, endogenous (from UniProt P23258)
